The source of these data is PMC10484922, “Discovery of a selective and biologically active low-molecular weight antagonist of human interleukin-1β” (Nature Communications, 2023).

The chains behind the UniProt entries cited, without tags or fusion partners. Residues count along the entry.
UniProt P14778, residues 18-332: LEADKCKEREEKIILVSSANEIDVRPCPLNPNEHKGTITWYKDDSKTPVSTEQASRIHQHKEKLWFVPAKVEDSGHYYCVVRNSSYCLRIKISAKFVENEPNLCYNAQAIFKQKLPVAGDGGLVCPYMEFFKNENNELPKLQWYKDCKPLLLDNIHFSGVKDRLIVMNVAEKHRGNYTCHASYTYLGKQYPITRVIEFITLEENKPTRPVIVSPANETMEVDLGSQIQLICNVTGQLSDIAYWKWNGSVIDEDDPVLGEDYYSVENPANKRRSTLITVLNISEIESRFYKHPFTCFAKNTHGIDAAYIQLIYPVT

The experiment has as its target hIL-1R1 (1–332; Alexa 647 labeled) (human) (UniProt P14778). Description: AlphaScreen or HTRF; TR-FRET: His-tagged IL-1β or IL-1α […], hIL-1R1 (1–332; Alexa 647 labeled) 50 nM, anti-His-Europium W1024 1 nM; 20 mM Tris pH 7.5, 150 mM NaCl, 1 mM EDTA, 0.5% Pluronic, 0.02% BSA; room temperature; with or without graded concentrations of low-molecular weight compounds; both purified. (In Alpha technology, singlet oxygen from a donor bead excites a nearby acceptor bead.)

These are yes or no findings as the source states them, for the method shown. Some entries that bind do so weakly or less than the wild type. Sequences can lack the tags named with a protein.

B1: recombinant His-tagged IL-1α (ligand, UniProt P01583 113-271)
chain: SAPFSFLSNVKYNFMRIIKYEFILNDALNQSIIRANDQYLTAAALHNLDEAVKFDMGAYKSSKDDAKITVILRISKTQLYVTAQDEDQPVLLKEMPEIPKTITGSETNLLFFWETHGTKNYFTSVAHPNLFIATKQDYWVCLAGGPPSITDFQILENQA
For B1, the binding entry was “binds”.
